Measured values published in article PMC5780496.
No constants are given. Whether binding was seen depends on the method and setting. Binding seen in cells or lysates may run through a third protein.

Columns and labels:
HACE1 ANK domain alone = assay: co-IP; MCF12A cells 20 hours post-transfection, lysed in 50 mM Tris-HCl pH 7.5, 150 mM NaCl, 1% Triton-X100, 0.27 M sucrose; anti-HA or anti-Flag affinity gel, 2 hours at 4 °C; immunoblot; in some samples active PAK1(K141A) co-expressed
HACE1 MID region alone = assay: as above

- binding (HACE1 ANK domain alone): no binding
- binding (HACE1 MID region alone): no binding
B1: HACE1 HECT domain alone (domain or fragment, UniProt Q8IYU2 574-909)
chain: NCAKLKQGIAVRFHGEEGMGQGVVREWFDILSNEIVNPDYALFTQSADGTTFQPNSNSYVNPDHLNYFRFAGQILGLALNHRQLVNIYFTRSFYKHILGIPVNYQDVASIDPEYAKNLQWILDNDISDLGLELTFSVETDVFGAMEEVPLKPGGGSILVTQNNKAEYVQLVTELRMTRAIQPQINAFLQGFHMFIPPSLIQLFDEYELELLLSGMPEIDVSDWIKNTEYTSGYEREDPVIQWFWEVVEDITQEERVLLLQFVTGSSRVPHGGFANIMGGSGLQNFTIAAVPYTPNLLPTSSTCINMLKLPEYPSKEILKDRLLVALHCGSYGYTMA
